# Where a name gives a salt, the structure may show the parent alone. This is one part of the list. Single values are uncertain here, since repeats match poorly.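 Cells: ReNCell VM human fetal ventral-midbrain neural progenitors, differentiated mitogen-free. Blinded raters compared doublecortin-stained (early neurons) or tyrosine hydroxylase-stained (dopaminergic neurons) images with untreated wells, where 0 means no change. After repeats and both raters were averaged, compounds scoring 2 or above became hits for retesting.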
# Key:
# ReNCell VM [1] = assay: neuronal differentiation score (DCX+ cell fraction vs untreated, manual image score) (score (-3 to 3)); higher = more neuronal differentiation; details: 2 uM, 2 weeks
# ReNCell VM [2] = assay: dopaminergic neuron differentiation score (TH+ cell fraction vs untreated, manual image score) (score (0 to 3)); higher = more TH+ dopaminergic neuron differentiation; details: 2 uM, 4 weeks, BDNF 10 ng/ml + GDNF 10 ng/ml
compound,measurement,setting,value
Nc1ccc(S(=O)(=O)Nc2nccs2)cc1,neuronal differentiation score,ReNCell VM [1]; library: Spectrum,inactive: 0
same,dopaminergic neuron differentiation score,ReNCell VM [2]; library: Spectrum,inactive: 0
Nc1nc2ccc(OC(F)(F)F)cc2s1 [Riluzole],neuronal differentiation score,ReNCell VM [1]; library: LOPAC,inactive: 0
same,dopaminergic neuron differentiation score,ReNCell VM [2]; library: LOPAC,inactive: 0
COC(=O)/C=C/c1cccc(N(Cc2ccc(-c3ccc(N(C)C)cc3)cc2)C(=O)C2CCCCC2)c1 [Fexaramine],neuronal differentiation score,ReNCell VM [1]; library: Tocriscreen,inactive: 0
same,dopaminergic neuron differentiation score,ReNCell VM [2]; library: Tocriscreen,inactive: 0
CC(C)Oc1cccc(-n2c(CCc3c[nH]c4ccc(Br)cc34)nc3ccccc3c2=O)c1,neuronal differentiation score,ReNCell VM [1]; library: Tocriscreen,inactive: 0
same,dopaminergic neuron differentiation score,ReNCell VM [2]; library: Tocriscreen,inactive: 0
CCN(CC)C(=S)SSC(=S)N(CC)CC [Disulfiram],neuronal differentiation score,ReNCell VM [1]; library: Prestwick,inactive: 0
same,dopaminergic neuron differentiation score,ReNCell VM [2]; library: Prestwick,inactive: 0
COc1ccc(Nc2ncnc3ccc(OC)cc23)cc1 [MPMQ hydrochloride],neuronal differentiation score,ReNCell VM [1]; library: Tocriscreen,inactive: 0
same,dopaminergic neuron differentiation score,ReNCell VM [2]; library: Tocriscreen,inactive: 0
Nc1ccn([C@@H]2CS[C@H](CO)O2)c(=O)n1,neuronal differentiation score,ReNCell VM [1]; library: Spectrum,inactive: 0
same,dopaminergic neuron differentiation score,ReNCell VM [2]; library: Spectrum,inactive: 0
O=C1OC(CN2CCOCC2)CN1/N=C/c1ccc([N+](=O)[O-])o1 (stereo not drawn) [Furaltadone hydrochloride],neuronal differentiation score,ReNCell VM [1]; library: Prestwick,inactive: 0
same,dopaminergic neuron differentiation score,ReNCell VM [2]; library: Prestwick,inactive: 0
C=C[C@H]1CN2CC[C@H]1C[C@@H]2[C@@H](O)c1ccnc2ccc(OC)cc12,neuronal differentiation score,ReNCell VM [1]; library: Spectrum,inactive: 0
same,dopaminergic neuron differentiation score,ReNCell VM [2]; library: Spectrum,inactive: 0
Cc1cc(=O)[nH]c(=S)[nH]1,neuronal differentiation score,ReNCell VM [1]; library: Spectrum,inactive: 0
same,dopaminergic neuron differentiation score,ReNCell VM [2]; library: Spectrum,inactive: 0
Nc1nc2c(cnn2CCc2ccccc2)c2nc(-c3ccco3)nn12,neuronal differentiation score,ReNCell VM [1]; library: Tocriscreen,inactive: 0
same,dopaminergic neuron differentiation score,ReNCell VM [2]; library: Tocriscreen,inactive: 0
CCN1CCC[C@H]1CNC(=O)c1cc(S(N)(=O)=O)ccc1OC [(S)-(-)-Sulpiride],neuronal differentiation score,ReNCell VM [1]; library: Tocriscreen,inactive: 0
same,dopaminergic neuron differentiation score,ReNCell VM [2]; library: Tocriscreen,inactive: 0
O=C(O)C1=CCCN(CCON=C(c2ccccc2)c2ccccc2)C1,neuronal differentiation score,ReNCell VM [1]; library: Tocriscreen,inactive: 0
same,dopaminergic neuron differentiation score,ReNCell VM [2]; library: Tocriscreen,inactive: 0
COc1cc2oc3cc(OC)c(OC)c(CC=C(C)C)c3c(=O)c2c(OC)c1CC=C(C)C,neuronal differentiation score,ReNCell VM [1]; library: Spectrum,inactive: 0
same,dopaminergic neuron differentiation score,ReNCell VM [2]; library: Spectrum,inactive: 1
O=c1cc(-c2ccc(O)cc2)oc2ccc(O)cc12,neuronal differentiation score,ReNCell VM [1]; library: Spectrum,inactive: 0
same,dopaminergic neuron differentiation score,ReNCell VM [2]; library: Spectrum,inactive: 0
CCN1CCc2nc(N)oc2CC1 [B-HT 933 dihydrochloride],neuronal differentiation score,ReNCell VM [1]; library: LOPAC,inactive: 0
same,dopaminergic neuron differentiation score,ReNCell VM [2]; library: LOPAC,inactive: 0
O=C1OC2(c3ccc(O)cc3Oc3cc(O)ccc32)c2ccccc21,neuronal differentiation score,ReNCell VM [1]; library: Spectrum,inactive: 0
same,dopaminergic neuron differentiation score,ReNCell VM [2]; library: Spectrum,inactive: 0
Cc1cc(C(=O)O)sc1C(N)C(=O)O (stereo not drawn),neuronal differentiation score,ReNCell VM [1]; library: Tocriscreen,inactive: 0
same,dopaminergic neuron differentiation score,ReNCell VM [2]; library: Tocriscreen,inactive: 0
CCCCCCCCCCCC[C@@H](C(=O)O)[C@H](C)C(=O)O,neuronal differentiation score,ReNCell VM [1]; library: Spectrum,inactive: 0
same,dopaminergic neuron differentiation score,ReNCell VM [2]; library: Spectrum,inactive: 0
C=CCCCCCCCCC(=O)[O-].C=CCCCCCCCCC(=O)[O-].[Zn+2],neuronal differentiation score,ReNCell VM [1]; library: Spectrum,inactive: 0
same,dopaminergic neuron differentiation score,ReNCell VM [2]; library: Spectrum,inactive: 0
CC(C)NCC(O)c1ccc(O)c(O)c1 (stereo not drawn) [Isoproterenol hydrochloride],neuronal differentiation score,ReNCell VM [1]; library: Tocriscreen,active: 2
same,dopaminergic neuron differentiation score,ReNCell VM [2]; library: Tocriscreen,inactive: 0
NC1CCN(c2nc3c(cc2F)c(=O)c(C(=O)O)cn3-c2ccc(F)cc2F)C1 (stereo not drawn) [Tosufloxacin hydrochloride],neuronal differentiation score,ReNCell VM [1]; library: Prestwick,inactive: 0
same,dopaminergic neuron differentiation score,ReNCell VM [2]; library: Prestwick,inactive: 0
CCCCCCCCCCCCCCCC[N+](C)(C)C,neuronal differentiation score,ReNCell VM [1]; library: Spectrum,inactive: 0
same,dopaminergic neuron differentiation score,ReNCell VM [2]; library: Spectrum,inactive: 0
CCCCNc1ccc(C(=O)OCCN(C)C)cc1,neuronal differentiation score,ReNCell VM [1]; library: Spectrum,inactive: 0
same,dopaminergic neuron differentiation score,ReNCell VM [2]; library: Spectrum,inactive: 0
CCCCCS(=O)(=O)CCCCCCCCCCn1c(-c2ccc(O)cc2)c(C)c2cc(O)ccc21,neuronal differentiation score,ReNCell VM [1]; library: Tocriscreen,inactive: 0
same,dopaminergic neuron differentiation score,ReNCell VM [2]; library: Tocriscreen,inactive: 0
OC(CCN1CCCC1)(c1ccccc1)C1CCCCC1 (stereo not drawn),neuronal differentiation score,ReNCell VM [1]; library: Spectrum,inactive: 0
same,dopaminergic neuron differentiation score,ReNCell VM [2]; library: Spectrum,inactive: 1
CCCCCCCCCCCCCCCCC(C(=O)O)C(O)(CC(=O)O)C(=O)O (stereo not drawn),neuronal differentiation score,ReNCell VM [1]; library: Spectrum,inactive: 0
same,dopaminergic neuron differentiation score,ReNCell VM [2]; library: Spectrum,inactive: 0
CN1CCC[C@H]1c1cccnc1,neuronal differentiation score,ReNCell VM [1]; library: Spectrum,inactive: 0
same,dopaminergic neuron differentiation score,ReNCell VM [2]; library: Spectrum,inactive: 0
N[C@@H](Cc1ccc(O)c(O)c1)C(=O)O,neuronal differentiation score,ReNCell VM [1]; library: Spectrum,inactive: 0
same,dopaminergic neuron differentiation score,ReNCell VM [2]; library: Spectrum,inactive: 0
C[C@H](NC(=O)c1sccc1OCc1ccc(Cl)cc1)c1ccccc1,neuronal differentiation score,ReNCell VM [1]; library: Tocriscreen,inactive: 0
same,dopaminergic neuron differentiation score,ReNCell VM [2]; library: Tocriscreen,inactive: 0
COc1ccc(C(C)=O)c(O)c1,neuronal differentiation score,ReNCell VM [1]; library: Spectrum,inactive: 0
same,dopaminergic neuron differentiation score,ReNCell VM [2]; library: Spectrum,inactive: 0
CCOC(=O)[C@@H](C)Oc1cccc2c(=O)n(CC(=O)Nc3ccc4c(c3)OCCO4)ccc12,neuronal differentiation score,ReNCell VM [1]; library: Tocriscreen,inactive: 0
same,dopaminergic neuron differentiation score,ReNCell VM [2]; library: Tocriscreen,inactive: 0
CC1/C=C/C=C/C=C/C=C/C=C/C=C/C=C/C(OC2O[C@H](C)[C@@H](O)[C@H](N)[C@@H]2O)CC(O)C(C(=O)O)C(O)CC(=O)CC(O)CC(O)CC(O)CC(=O)CCCC(=O)CC(=O)OC1C(C)CC(C)C(O)CC(=O)c1ccc(N)cc1 (stereo partly drawn),neuronal differentiation score,ReNCell VM [1]; library: Spectrum,inactive: 0
same,dopaminergic neuron differentiation score,ReNCell VM [2]; library: Spectrum,inactive: 0
COc1c(N2C[C@@H]3CCCN[C@@H]3C2)c(F)cc2c(=O)c(C(=O)O)cn(C3CC3)c12,neuronal differentiation score,ReNCell VM [1]; library: Spectrum,inactive: 1
same,dopaminergic neuron differentiation score,ReNCell VM [2]; library: Spectrum,inactive: 0

# 13 consecutive records already listed:
compound,measurement,setting,value
CCCCCCCCCCCC[C@@H](C(=O)O)[C@H](C)C(=O)O,dopaminergic neuron differentiation score,ReNCell VM [2]; library: Spectrum,inactive: 0
C=CCCCCCCCCC(=O)[O-].C=CCCCCCCCCC(=O)[O-].[Zn+2],neuronal differentiation score,ReNCell VM [1]; library: Spectrum,inactive: 0
same,dopaminergic neuron differentiation score,ReNCell VM [2]; library: Spectrum,inactive: 0
CC(C)NCC(O)c1ccc(O)c(O)c1 (stereo not drawn) [Isoproterenol hydrochloride],neuronal differentiation score,ReNCell VM [1]; library: Tocriscreen,active: 2
same,dopaminergic neuron differentiation score,ReNCell VM [2]; library: Tocriscreen,inactive: 0
NC1CCN(c2nc3c(cc2F)c(=O)c(C(=O)O)cn3-c2ccc(F)cc2F)C1 (stereo not drawn) [Tosufloxacin hydrochloride],neuronal differentiation score,ReNCell VM [1]; library: Prestwick,inactive: 0
same,dopaminergic neuron differentiation score,ReNCell VM [2]; library: Prestwick,inactive: 0
CCCCCCCCCCCCCCCC[N+](C)(C)C,neuronal differentiation score,ReNCell VM [1]; library: Spectrum,inactive: 0
same,dopaminergic neuron differentiation score,ReNCell VM [2]; library: Spectrum,inactive: 0
CCCCNc1ccc(C(=O)OCCN(C)C)cc1,neuronal differentiation score,ReNCell VM [1]; library: Spectrum,inactive: 0
same,dopaminergic neuron differentiation score,ReNCell VM [2]; library: Spectrum,inactive: 0
CCCCCS(=O)(=O)CCCCCCCCCCn1c(-c2ccc(O)cc2)c(C)c2cc(O)ccc21,neuronal differentiation score,ReNCell VM [1]; library: Tocriscreen,inactive: 0
same,dopaminergic neuron differentiation score,ReNCell VM [2]; library: Tocriscreen,inactive: 0

# Source: the supplement of paper PMC4635364
